Data as given in PubChem BioAssay AID743454 (Peter MacCallum Cancer Centre, 2014).
Here is one part, drawn at random, of about 18,000 deposited reagents. In the full data, 450 (2.5%) are marked active. 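Single biological run; no consistent viability z cut-off exists, so the class columns, not z-scores, define the calls.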 Unmarked entries are inactive.

Aim: 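Knock-downs lowering viability or raising caspase 3/7 activity in vorinostat-treated resistant cells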 (primary screen)
System: human HCT116-VR colon cancer cells, selected for vorinostat resistance
Reagents: siRNA pool against human genes, 40 nM siRNA pool
Duration: vorinostat for 24 h, read-out about 72 h after transfection
Challenge: vorinostat at 2.5 µM final
Detection: 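Cell viability by CellTiter-Fluor and caspase 3/7 activity by luminescence, each scaled to mock wells per plate, duplicates averaged, then robust z-scored over all plates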
Reading the numbers: viability robust z-score: higher = more viable cells than screen typical; caspase robust z-score: higher = more caspase 3/7 activity than screen typical
Hit rule: 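Hits are knock-downs in viability class RV1/RV2 or caspase class CA1/CA2, excluding ones that killed cells in the no-drug cell-count arm; hits then retested with single siRNAs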

target gene	viability hit class	caspase hit class	viability robust z-score	caspase robust z-score
TMEM129	no change	no change	0.15	0.47
PRKG1	no change	no change	0.75	-0.56
RPS6KL1	no change	no change	-0.91	1.2
SS18	no change	no change	0.68	-0.08
CDKN2A	no change	no change	-0.18	-1.16
WTAP	no change	no change	-0.14	-1.04
TMEM38B	no change	no change	0.22	-0.88
OMP	no change	no change	-0.38	5.12
ARL6IP6	no change	no change	-0.12	2.75
OR2AE1	no change	no change	-0.16	-0.52
ASTE1	no change	no change	-1.5	0.94
SLC25A43	no change	no change	0.68	-0.25
NEGR1	no change	no change	0.92	-0.56
CDK2	no change	no change	0.04	0.22
CIDEC	no change	no change	-0.01	-0.16
DPH7	no change	no change	-0.1	-0.34
RNF32	no change	no change	-0.52	-0.46
GCK	no change	no change	-1.02	2.46
DEFB103A	no change	no change	0.5	-0.21
CLIP2	no change	no change	0.67	0.05
AKR1C2	no change	no change	-0.13	3.18
BUB1B	no change	no change	-0.7	2.15
CGRRF1	no change (active)	CA2 (caspase activation)	-2.68	6.83

Entries above with an active call, once more:
target gene	viability hit class	caspase hit class	viability robust z-score	caspase robust z-score
CGRRF1	no change (active)	CA2 (caspase activation)	-2.68	6.83

More reagents follow.
target gene	viability hit class	caspase hit class	viability robust z-score	caspase robust z-score
SUCLG2	no change	no change	-1.06	-0.12
RYK	no change	no change	1.06	-0.75
B3GALNT1	no change	no change	0.72	-0.86
IFT80	no change	no change	0.88	-0.79
LTBP3	no change	no change	-0.82	4.43
BRINP2	no change	no change	-0.37	0.54
FOXA2	no change	no change	-1.19	-0.23
PROS1	no change	no change	0.78	-0.31
DHX40	no change	no change	-0.88	-0.91
TMEM168	no change	no change	0.1	-0.86
RINT1	no change	no change	0.24	-1.51
CD82	no change	no change	0.28	-0.85
LMNB1	no change	no change	-2.13	-0.52
THUMPD1	no change	no change	-0.3	-0.06
SLC17A6	no change	no change	-0.2	1.82
IFTAP	no change	no change	-0.48	1.9
